These are yes or no findings as the source states them, for the method shown. In cells and extracts the contact can be indirect. Some binding calls cover weakened binding; strength is not graded here. For some assays here: Sequences can lack the tags named with a protein.
How the values were obtained:
Flag-Smad4, Q13485 = molecular target: T1, Flag-Smad4, Q13485; assay: co-IP; two-step immunoprecipitation: Flag-Smad4 complex from transfected MDA-MB-231 cells (5 ng/ml TGF-β, 2 h), eluted with M2 peptide, then precipitated with anti-Smad3 antibody; settings: remark: other sources report otherwise
T1 chain: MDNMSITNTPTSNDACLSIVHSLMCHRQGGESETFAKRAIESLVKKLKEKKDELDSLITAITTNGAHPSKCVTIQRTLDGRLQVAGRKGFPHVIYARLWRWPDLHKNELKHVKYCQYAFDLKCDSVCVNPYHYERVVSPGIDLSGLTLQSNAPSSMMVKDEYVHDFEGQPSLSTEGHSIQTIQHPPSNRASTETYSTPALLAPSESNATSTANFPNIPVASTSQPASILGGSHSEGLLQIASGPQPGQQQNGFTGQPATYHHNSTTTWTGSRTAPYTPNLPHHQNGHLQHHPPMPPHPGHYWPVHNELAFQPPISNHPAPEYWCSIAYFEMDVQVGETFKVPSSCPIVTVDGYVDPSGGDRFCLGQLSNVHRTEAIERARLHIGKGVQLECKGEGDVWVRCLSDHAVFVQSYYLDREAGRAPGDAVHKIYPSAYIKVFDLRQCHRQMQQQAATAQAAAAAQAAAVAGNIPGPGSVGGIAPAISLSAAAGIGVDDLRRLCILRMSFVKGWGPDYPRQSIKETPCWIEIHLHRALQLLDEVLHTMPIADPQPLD

[1] = molecular target: T2, Smad4 (human (endogenous in MDA-MB-231 and M10)), Q13485; assay: co-IP; endogenous Smad3 and Smad4; MDA-MB-231 cells stably expressing Smyca shRNAs or Smyca constructs, or M10 cells stably expressing Smyca; with or without 5 ng/ml TGF-β for 1 h; RIPA lysates; settings: remark: other sources report otherwise
T2 chain: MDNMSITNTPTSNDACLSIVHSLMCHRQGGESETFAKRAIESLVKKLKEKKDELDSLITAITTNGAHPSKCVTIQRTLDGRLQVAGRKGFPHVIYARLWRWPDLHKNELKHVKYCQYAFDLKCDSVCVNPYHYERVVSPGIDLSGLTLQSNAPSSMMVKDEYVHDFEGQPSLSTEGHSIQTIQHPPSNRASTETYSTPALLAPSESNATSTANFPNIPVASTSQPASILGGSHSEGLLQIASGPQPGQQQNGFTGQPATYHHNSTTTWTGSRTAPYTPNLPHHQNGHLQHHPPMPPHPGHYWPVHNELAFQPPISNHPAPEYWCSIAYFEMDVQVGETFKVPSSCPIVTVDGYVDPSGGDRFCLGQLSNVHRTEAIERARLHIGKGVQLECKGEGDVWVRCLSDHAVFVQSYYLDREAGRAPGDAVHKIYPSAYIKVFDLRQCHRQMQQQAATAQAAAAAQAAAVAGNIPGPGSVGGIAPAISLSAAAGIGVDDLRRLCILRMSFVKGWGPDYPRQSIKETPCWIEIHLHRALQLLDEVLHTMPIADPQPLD

B1: Smad3, P84022 1-425 (protein)
chain: MSSILPFTPPIVKRLLGWKKGEQNGQEEKWCEKAVKSLVKKLKKTGQLDELEKAITTQNVNTKCITIPRSLDGRLQVSHRKGLPHVIYCRLWRWPDLHSHHELRAMELCEFAFNMKKDEVCVNPYHYQRVETPVLPPVLVPRHTEIPAEFPPLDDYSHSIPENTNFPAGIEPQSNIPETPPPGYLSEDGETSDHQMNHSMDAGSPNLSPNPMSPAHNNLDLQPVTYCEPAFWCSISYYELNQRVGETFHASQPSMTVDGFTDPSNSERFCLGLLSNVNRNAAVELTRRHIGRGVRLYYIGGEVFAECLSDSAIFVQSPNCNQRYGWHPATVCKIPPGCNLKIFNNQEFAALLAQSVNQGFEAVYQLTRMCTIRMSFVKGWGAEYRRQTVTSTPCWIELHLNGPLQWLDKVLTQMGSPSIRCSSVS
**Q.** Which results are given for B1?
**A.** binding (Flag-Smad4, Q13485): binds; binding [1]: binds
